Earlier results in patent publication US5712148A (Synaptic Pharmaceutical Corporation, priority 1995, dated 1998).

Tested on: dog betaine/GABA transporter
Settings: read-out: KM for GABA (dog); expressed in oocytes; 30 minutes at 25° C. (Yamauchi et al., 1992); cited from earlier work

NCCCC(=O)O [GABA, γ-aminobutyric acid]
Km: 93 µM
